In paper PMC10267116, “Structural and functional analysis of a plant nucleolar RNA chaperone-like protein”:
These are yes or no findings as the source states them, for the method shown.

Target: T1, NUCLEOLAR RNA CHAPERONE-LIKE 1 (NURC1) full-length protein (A. thaliana), Q9LZ65
T1 chain: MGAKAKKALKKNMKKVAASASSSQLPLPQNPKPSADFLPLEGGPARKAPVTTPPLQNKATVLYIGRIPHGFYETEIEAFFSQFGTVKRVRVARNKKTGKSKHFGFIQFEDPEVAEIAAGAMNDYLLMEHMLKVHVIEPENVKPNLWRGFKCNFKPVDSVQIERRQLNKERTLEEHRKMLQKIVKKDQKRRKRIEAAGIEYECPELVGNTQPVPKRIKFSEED
Assay: SEC-MALLS; Superdex 75 Increase 10/300 GL, 0.5 ml/min; running buffer HNa2PO4 pH 7.5, 300 mM NaCl, 5% glycerol, 1 mM DTT; loading concentration in Supplementary Table S3; both purified
Conditions: remark: other sources report otherwise

B1: NUCLEOLAR RNA CHAPERONE-LIKE 1 (NURC1) full-length protein, Q9LZ65 1-222 (protein)
chain: T1 chain
With B1 the binding was “no binding”.
